Measurements from article doi:10.1101/2022.11.07.515429 (bioRxiv, 2022).
No constants are given. Whether binding was seen depends on the method and setting. For some of these results: In cells and extracts the contact can be indirect. Some binding calls cover weakened binding; strength is not graded here. For some of these results: Tags and fused reporters may be left off the sequences shown. Values belong to the molecule of their own block, whether it stands above or below them.

By UniProt entry, the sequences of proteins in these tests, tags left out. Where a name states a change or a piece, a line headed by the entry shows the natural chain unless it says otherwise.
UniProt O75533, whole entry, looked up, stated change not applied: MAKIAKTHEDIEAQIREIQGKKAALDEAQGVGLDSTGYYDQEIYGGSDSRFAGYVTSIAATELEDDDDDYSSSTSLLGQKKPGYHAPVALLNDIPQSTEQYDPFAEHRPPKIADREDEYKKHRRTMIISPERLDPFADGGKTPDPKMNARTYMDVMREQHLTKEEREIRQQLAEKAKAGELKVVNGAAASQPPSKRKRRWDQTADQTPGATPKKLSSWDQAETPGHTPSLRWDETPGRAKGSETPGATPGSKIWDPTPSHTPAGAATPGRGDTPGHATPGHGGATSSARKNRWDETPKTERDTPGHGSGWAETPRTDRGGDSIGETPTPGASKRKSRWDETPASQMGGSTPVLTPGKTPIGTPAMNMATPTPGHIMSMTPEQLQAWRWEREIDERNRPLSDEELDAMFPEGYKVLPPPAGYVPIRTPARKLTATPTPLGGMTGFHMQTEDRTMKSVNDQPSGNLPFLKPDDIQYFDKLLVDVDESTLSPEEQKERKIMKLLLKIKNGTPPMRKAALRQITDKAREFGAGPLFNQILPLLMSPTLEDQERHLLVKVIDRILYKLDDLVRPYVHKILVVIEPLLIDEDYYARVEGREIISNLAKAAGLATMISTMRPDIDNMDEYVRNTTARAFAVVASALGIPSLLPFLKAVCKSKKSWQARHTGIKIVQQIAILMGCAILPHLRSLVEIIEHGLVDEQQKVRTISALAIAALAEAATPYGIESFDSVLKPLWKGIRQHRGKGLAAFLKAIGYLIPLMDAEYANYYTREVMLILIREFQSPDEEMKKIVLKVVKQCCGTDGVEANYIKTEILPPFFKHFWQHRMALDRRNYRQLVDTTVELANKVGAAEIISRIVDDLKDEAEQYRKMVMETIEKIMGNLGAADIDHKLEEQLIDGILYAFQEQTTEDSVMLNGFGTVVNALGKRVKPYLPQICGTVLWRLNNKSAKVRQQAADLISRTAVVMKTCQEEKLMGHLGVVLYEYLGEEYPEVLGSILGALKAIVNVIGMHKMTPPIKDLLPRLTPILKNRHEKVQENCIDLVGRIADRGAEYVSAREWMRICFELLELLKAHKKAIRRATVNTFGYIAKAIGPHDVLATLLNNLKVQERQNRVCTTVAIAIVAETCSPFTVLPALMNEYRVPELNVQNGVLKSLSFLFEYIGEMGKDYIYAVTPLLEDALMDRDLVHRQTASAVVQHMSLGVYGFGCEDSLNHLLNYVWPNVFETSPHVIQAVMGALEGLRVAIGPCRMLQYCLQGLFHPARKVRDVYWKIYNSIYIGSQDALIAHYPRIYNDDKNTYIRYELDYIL

Assays:
[1] = target: T1, Strep-PRP5 (human, UniProt Q7L014 1-1031); experiment: pull-down
T1 sequence: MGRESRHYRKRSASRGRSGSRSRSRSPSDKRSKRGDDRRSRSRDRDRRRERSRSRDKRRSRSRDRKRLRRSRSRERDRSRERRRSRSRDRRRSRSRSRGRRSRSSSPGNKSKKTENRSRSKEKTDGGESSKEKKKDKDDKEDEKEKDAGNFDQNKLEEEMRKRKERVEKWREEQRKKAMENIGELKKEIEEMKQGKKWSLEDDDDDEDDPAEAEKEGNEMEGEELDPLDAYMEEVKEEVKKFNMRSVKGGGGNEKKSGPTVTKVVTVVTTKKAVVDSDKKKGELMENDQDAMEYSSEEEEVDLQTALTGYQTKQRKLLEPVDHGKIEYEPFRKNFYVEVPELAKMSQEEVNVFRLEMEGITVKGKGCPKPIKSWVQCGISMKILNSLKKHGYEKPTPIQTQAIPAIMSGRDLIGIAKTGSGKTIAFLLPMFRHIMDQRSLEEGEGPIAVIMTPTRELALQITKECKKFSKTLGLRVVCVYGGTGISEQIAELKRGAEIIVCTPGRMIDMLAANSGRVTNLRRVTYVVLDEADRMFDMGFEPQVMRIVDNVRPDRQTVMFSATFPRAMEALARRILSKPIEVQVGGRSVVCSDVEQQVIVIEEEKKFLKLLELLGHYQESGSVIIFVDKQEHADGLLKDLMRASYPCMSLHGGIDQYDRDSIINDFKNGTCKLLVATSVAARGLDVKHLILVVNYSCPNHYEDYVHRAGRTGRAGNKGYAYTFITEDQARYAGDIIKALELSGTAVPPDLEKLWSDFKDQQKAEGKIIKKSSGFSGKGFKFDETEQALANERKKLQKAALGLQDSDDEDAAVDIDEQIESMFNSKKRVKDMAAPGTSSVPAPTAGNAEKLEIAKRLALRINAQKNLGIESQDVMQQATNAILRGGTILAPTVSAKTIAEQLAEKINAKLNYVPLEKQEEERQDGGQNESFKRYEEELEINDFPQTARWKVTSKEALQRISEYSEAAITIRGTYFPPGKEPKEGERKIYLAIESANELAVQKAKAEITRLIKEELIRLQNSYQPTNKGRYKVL

[2] = target: T2, Flag-tagged PRP5 (human) (UniProt Q7L014); experiment: cryo-EM structure
T2 sequence: T1 sequence

[3] = target: T3, SF1 (human) (UniProt Q15637); experiment: cryo-EM structure
T3 sequence: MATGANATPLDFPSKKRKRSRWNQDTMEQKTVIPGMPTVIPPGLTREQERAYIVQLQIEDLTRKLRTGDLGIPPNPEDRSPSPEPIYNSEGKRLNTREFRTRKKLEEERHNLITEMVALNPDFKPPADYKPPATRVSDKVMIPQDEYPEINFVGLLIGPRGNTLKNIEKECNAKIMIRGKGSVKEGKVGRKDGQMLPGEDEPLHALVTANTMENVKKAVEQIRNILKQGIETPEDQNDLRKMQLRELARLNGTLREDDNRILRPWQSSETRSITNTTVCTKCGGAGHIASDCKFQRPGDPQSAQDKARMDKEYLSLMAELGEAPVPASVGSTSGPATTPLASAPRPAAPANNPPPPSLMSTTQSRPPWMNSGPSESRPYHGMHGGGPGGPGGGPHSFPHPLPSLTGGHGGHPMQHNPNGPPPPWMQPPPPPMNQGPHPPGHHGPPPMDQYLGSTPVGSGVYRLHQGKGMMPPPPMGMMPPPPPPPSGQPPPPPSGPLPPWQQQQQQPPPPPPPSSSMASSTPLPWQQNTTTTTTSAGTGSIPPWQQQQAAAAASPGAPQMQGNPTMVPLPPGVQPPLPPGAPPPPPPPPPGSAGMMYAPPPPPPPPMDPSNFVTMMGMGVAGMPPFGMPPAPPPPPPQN

[4] = target: T4, SF3A2 (human) (UniProt Q15428); experiment: cryo-EM structure
T4 sequence: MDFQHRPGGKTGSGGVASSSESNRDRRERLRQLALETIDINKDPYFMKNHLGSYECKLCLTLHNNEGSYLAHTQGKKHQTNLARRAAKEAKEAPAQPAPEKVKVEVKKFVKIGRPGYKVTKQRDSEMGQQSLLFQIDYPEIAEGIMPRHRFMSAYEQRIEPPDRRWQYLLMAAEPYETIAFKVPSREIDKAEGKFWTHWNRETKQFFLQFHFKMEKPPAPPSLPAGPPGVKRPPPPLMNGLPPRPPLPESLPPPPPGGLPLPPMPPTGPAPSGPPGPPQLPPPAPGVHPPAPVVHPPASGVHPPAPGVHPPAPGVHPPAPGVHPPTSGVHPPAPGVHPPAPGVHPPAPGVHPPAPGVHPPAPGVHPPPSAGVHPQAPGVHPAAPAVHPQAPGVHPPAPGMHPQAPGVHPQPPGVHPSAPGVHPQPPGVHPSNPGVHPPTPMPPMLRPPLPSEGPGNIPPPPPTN

binding [1]: binds
Molecule: Flag-tagged SF3B1 D781G (from UniProt O75533 1-1304)

binding [1]: binds
Molecule: Flag-tagged SF3B1 E622R (from UniProt O75533 1-1304)

binding [1]: binds
Molecule: Flag-tagged SF3B1 G742D (from UniProt O75533 1-1304)

binding [1]: binds
Molecule: Flag-tagged SF3B1 H662D (from UniProt O75533 1-1304)

binding [1]: binds
Molecule: Flag-tagged SF3B1 K666E (from UniProt O75533 1-1304)

binding [1]: binds
Molecule: Flag-tagged SF3B1 K741E (from UniProt O75533 1-1304)

binding [1]: binds
Molecule: Flag-tagged SF3B1 R625D (from UniProt O75533 1-1304)

binding [2]: binds
B1: TAT-SF1 (protein, UniProt O43719 1-755)
chain: MSGTNLDGNDEFDEQLRMQELYGDGKDGDTQTDAGGEPDSLGQQPTDTPYEWDLDKKAWFPKITEDFIATYQANYGFSNDGASSSTANVEDVHARTAEEPPQEKAPEPTDARKKGEKRKAESGWFHVEEDRNTNVYVSGLPPDITVDEFIQLMSKFGIIMRDPQTEEFKVKLYKDNQGNLKGDGLCCYLKRESVELALKLLDEDEIRGYKLHVEVAKFQLKGEYDASKKKKKCKDYKKKLSMQQKQLDWRPERRAGPSRMRHERVVIIKNMFHPMDFEDDPLVLNEIREDLRVECSKFGQIRKLLLFDRHPDGVASVSFRDPEEADYCIQTLDGRWFGGRQITAQAWDGTTDYQVEETSREREERLRGWEAFLNAPEANRGLRRSDSVSASERAGPSRARHFSEHPSTSKMNAQETATGMAFEEPIDEKKFEKTEDGGEFEEGASENNAKESSPEKEAEEGCPEKESEEGCPKRGFEGSCSQKESEEGNPVRGSEEDSPKKESKKKTLKNDCEENGLAKESEDDLNKESEEEVGPTKESEEDDSEKESDEDCSEKQSEDGSEREFEENGLEKDLDEEGSEKELHENVLDKELEENDSENSEFEDDGSEKVLDEEGSEREFDEDSDEKEEEEDTYEKVFDDESDEKEDEEYADEKGLEAADKKAEEGDADEKLFEESDDKEDEDADGKEVEDADEKLFEDDDSNEKLFDEEEDSSEKLFDDSDERGTLGGFGSVEEGPLSTGSSFILSSDDDDDDI

binding [3]: binds
binding [4]: binds
B2: DNAJC8 (protein, UniProt O75937 1-253)
chain: MAASGESGTSGGGGSTEEAFMTFYSEVKQIEKRDSVLTSKNQIERLTRPGSSYFNLNPFEVLQIDPEVTDEEIKKRFRQLSILVHPDKNQDDADRAQKAFEAVDKAYKLLLDQEQKKRALDVIQAGKEYVEHTVKERKKQLKKEGKPTIVEEDDPELFKQAVYKQTMKLFAELEIKRKEREAKEMHERKRQREEEIEAQEKAKREREWQKNFEESRDGRVDSWRNFQANTKGKKEKKNRTFLRPPKVKMEQRE
